Data taken from US12343355B2, “Methods for decreasing the incidence of necrotizing enterocolitis in infants, toddlers, or children using human milk oligosaccharides” (ABBOTT LABORATORIES, priority 2010, dated 2025).
Some results were stated once for a whole list of compounds, not compound by compound. At least one compound was matched to its structure with a doubt left.

Tested on: diluted feces of infants (fecal inoculum)
Assay: In vitro fermentation model simulating large bowel fermentation, infant fecal inoculum (pH, SCFA, fermentation rate)
Type: cell-based

| SMILES | fermentation rate class |
| --- | --- |
| CC(=O)N[C@H]1[C@H]([C@H](O)[C@H](O)CO)O[C@@](O[C@H]2[C@@H](O)[C@@H](CO)O[C@@H](O[C@H]3[C@H](O)[C@@H](O)C(O)O[C@@H]3CO)[C@@H]2O)(C(=O)O)C[C@@H]1O (some centres unmarked) [3′SL, 3′-sialyllactose] | Medium-fermented (medium-fermented oligosaccharides generally have a fermentation rate of from 1,500 i·tg/g of dry matter/hour to 4,000 i·tg/g of dry matter/hour) |
| CC(=O)N[C@H]1C([C@H](O)[C@H](O)CO)O[C@@](OCC2O[C@@H](O[C@@H]3C(CO)OC(O)C(O)[C@H]3O)C(O)[C@@H](O)[C@H]2O)(C(=O)[O-])C[C@H]1O.[Na+] (some centres unmarked) [6′SL, a-(2-6′)-N-Acetylneuraminyl-lactose sodium salt] | Medium-fermented (medium-fermented oligosaccharides generally have a fermentation rate of from 1,500 i·tg/g of dry matter/hour to 4,000 i·tg/g of dry matter/hour) |
